Some of the results follow.
Assays:
Assay in all cases: log2 fold change, soluble protein after heating vs DMSO (PISA); higher = thermal stabilisation; K562 cells, 10 uM, 30 min; active = over 0.2 and 3.5 SD of the protein, either way, in both replicates (recomputed)
[1] = compound: Cc1ccc(NC(=O)c2ccc(CN3CC[C@H](N(C)C)C3)c(C(F)(F)F)c2)cc1Nc1nccc(-c2cncnc2)n1 [bafetinib]
How it was run: (§1)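 For each measurement, 10 μM compound was applied for 30 min to K562 cells at 2×10^6 cells/mL. Aliquots were heated for 3 min across 48°C-58°C, pooled, and extracted in PBS with 0.5% NP-40 at 4°C; the supernatant after 21,000xg for 90 min was soluble protein. This was quantified by TMTpro 16plex LC-MS/MS with channel sums equalised, and thermal stability was reported relative to control samples from duplicates, on a log2 fold-change scale.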

Protein sequences, listed by entry. Tags and fused reporters are not part of them. Lines headed by an entry give the natural chain unless they say otherwise; changes in a name come on top.
UniProt P00568: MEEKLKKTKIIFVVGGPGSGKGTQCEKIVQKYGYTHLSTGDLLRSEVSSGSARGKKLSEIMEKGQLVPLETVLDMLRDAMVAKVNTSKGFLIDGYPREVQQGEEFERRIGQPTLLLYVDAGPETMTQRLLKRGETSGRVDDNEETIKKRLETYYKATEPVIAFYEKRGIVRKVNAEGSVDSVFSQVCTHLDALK
UniProt Q96Q83: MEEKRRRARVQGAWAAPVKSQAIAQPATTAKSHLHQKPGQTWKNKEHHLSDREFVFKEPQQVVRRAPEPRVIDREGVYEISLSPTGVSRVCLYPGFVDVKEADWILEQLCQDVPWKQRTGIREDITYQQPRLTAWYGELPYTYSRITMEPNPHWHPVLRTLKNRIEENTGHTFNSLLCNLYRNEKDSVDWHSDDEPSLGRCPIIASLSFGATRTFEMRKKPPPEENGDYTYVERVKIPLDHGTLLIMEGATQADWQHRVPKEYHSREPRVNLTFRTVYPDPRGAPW
UniProt P27144: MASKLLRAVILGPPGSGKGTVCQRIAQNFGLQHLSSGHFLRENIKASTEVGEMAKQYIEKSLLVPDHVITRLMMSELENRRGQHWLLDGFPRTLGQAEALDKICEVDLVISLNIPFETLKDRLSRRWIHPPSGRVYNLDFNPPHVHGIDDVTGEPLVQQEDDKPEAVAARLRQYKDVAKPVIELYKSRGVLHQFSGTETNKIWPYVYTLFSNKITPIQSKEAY
UniProt Q01432: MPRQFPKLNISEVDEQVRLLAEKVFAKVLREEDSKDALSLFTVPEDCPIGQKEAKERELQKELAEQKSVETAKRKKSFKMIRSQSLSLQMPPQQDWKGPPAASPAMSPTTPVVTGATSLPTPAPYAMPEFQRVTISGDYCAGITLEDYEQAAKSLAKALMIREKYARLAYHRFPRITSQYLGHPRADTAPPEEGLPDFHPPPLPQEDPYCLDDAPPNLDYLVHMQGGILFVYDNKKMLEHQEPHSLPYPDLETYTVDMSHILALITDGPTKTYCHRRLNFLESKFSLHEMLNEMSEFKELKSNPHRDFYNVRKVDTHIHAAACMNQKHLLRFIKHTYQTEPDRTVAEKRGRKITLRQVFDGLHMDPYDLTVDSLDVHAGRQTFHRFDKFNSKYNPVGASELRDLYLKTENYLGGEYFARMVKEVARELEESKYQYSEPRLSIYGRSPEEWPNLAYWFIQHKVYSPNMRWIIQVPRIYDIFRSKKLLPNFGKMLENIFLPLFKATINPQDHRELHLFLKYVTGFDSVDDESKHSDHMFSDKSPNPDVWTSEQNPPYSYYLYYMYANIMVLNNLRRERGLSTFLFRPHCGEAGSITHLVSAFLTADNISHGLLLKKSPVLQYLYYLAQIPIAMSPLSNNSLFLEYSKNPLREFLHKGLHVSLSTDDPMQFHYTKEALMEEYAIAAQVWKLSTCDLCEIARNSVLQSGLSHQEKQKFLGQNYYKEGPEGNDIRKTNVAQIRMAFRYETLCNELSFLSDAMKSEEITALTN
UniProt P30038: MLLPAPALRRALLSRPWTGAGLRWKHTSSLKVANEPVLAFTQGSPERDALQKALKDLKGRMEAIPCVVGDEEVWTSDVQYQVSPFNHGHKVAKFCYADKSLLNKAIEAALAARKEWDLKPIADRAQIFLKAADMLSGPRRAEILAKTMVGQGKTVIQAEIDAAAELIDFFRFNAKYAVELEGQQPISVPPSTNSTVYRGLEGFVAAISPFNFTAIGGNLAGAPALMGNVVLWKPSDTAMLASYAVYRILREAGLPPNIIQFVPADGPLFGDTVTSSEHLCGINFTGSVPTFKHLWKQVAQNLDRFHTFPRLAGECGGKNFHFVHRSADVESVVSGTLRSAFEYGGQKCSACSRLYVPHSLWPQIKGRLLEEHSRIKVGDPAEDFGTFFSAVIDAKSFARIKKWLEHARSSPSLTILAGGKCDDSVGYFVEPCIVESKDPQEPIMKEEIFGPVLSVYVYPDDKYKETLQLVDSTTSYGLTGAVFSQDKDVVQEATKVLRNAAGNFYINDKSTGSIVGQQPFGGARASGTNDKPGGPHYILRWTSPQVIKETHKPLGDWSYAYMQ
UniProt O15120: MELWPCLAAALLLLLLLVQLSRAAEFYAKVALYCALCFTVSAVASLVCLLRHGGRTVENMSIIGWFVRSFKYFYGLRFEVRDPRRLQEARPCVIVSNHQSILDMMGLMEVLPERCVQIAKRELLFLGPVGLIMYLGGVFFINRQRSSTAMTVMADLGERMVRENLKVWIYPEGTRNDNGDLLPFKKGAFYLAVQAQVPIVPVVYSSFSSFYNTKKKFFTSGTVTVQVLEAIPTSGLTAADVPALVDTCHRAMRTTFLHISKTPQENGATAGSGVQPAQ
UniProt Q9Y303: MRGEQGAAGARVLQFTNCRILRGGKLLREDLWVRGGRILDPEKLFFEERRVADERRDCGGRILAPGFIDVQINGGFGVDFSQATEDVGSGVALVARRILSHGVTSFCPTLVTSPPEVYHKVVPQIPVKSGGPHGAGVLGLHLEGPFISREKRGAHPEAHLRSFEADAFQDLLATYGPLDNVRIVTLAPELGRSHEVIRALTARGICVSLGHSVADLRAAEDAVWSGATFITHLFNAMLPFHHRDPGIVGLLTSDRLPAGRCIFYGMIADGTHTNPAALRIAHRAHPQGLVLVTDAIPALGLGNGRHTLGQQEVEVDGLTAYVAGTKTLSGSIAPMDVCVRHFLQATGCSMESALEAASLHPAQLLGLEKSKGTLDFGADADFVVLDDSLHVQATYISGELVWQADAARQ
UniProt Q6ULP2: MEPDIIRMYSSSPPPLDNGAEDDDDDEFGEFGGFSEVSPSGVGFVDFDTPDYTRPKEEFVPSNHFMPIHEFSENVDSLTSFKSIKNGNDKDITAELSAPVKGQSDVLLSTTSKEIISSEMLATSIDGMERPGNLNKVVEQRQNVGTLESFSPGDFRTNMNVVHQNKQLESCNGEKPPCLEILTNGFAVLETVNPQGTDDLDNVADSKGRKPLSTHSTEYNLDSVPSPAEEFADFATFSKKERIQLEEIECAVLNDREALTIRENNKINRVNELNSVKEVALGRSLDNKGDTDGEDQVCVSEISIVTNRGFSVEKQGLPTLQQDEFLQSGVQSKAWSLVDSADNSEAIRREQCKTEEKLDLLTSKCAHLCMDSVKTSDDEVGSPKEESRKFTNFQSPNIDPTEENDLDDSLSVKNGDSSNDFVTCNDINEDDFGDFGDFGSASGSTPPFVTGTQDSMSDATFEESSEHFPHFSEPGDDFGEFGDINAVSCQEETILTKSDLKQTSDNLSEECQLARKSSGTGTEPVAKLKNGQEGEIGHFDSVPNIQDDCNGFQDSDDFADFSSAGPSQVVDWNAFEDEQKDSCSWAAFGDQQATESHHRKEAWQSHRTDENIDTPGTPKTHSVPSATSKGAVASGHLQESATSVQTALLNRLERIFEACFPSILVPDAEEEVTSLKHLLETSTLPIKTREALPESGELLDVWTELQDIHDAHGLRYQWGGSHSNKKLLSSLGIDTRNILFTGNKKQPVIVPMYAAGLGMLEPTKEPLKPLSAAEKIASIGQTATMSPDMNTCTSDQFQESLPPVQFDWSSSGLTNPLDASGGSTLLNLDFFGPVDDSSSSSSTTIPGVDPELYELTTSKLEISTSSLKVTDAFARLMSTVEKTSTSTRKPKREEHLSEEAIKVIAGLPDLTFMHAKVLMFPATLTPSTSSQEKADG
UniProt P42330: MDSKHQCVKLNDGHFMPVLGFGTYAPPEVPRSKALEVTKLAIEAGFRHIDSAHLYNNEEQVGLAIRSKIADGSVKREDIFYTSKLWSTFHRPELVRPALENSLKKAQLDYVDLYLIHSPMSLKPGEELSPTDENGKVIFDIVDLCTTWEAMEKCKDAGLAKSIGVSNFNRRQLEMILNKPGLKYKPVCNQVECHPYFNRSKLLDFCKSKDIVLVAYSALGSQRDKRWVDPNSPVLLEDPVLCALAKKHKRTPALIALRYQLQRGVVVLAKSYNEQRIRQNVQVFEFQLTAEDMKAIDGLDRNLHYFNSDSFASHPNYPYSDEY
UniProt P14550: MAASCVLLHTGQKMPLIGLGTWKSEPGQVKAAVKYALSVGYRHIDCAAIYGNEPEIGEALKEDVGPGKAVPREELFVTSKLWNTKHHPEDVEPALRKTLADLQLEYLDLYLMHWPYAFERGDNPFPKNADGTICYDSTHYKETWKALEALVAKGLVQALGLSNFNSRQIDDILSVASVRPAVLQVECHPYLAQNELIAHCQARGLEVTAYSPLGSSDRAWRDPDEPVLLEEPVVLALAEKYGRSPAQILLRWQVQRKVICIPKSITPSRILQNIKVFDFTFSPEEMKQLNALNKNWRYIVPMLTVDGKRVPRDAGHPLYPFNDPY
UniProt P49189: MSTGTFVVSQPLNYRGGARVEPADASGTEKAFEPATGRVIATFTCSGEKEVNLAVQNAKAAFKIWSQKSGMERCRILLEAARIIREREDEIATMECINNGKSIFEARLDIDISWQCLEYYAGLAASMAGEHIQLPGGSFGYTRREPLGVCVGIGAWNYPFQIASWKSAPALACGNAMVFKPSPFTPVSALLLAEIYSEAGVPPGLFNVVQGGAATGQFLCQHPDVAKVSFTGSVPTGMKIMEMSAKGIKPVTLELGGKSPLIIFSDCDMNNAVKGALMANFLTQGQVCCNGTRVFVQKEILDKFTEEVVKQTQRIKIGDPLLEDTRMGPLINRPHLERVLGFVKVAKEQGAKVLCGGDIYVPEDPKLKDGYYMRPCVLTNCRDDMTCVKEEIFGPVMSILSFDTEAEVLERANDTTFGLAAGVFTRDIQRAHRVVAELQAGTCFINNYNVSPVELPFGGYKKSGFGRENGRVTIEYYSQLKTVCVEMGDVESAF
UniProt Q9BT22: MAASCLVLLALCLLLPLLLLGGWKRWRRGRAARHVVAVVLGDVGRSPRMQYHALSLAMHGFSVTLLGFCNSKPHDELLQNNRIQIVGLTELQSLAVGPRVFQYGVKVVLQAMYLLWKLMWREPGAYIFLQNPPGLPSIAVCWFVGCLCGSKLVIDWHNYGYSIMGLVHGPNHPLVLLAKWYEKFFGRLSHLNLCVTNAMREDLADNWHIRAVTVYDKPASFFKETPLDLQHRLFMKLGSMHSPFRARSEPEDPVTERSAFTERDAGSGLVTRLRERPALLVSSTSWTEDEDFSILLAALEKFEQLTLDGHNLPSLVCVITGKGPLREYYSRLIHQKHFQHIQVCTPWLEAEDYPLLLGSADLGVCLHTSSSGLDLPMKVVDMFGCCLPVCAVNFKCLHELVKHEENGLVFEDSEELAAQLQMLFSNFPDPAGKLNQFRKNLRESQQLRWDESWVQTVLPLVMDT
UniProt P31749: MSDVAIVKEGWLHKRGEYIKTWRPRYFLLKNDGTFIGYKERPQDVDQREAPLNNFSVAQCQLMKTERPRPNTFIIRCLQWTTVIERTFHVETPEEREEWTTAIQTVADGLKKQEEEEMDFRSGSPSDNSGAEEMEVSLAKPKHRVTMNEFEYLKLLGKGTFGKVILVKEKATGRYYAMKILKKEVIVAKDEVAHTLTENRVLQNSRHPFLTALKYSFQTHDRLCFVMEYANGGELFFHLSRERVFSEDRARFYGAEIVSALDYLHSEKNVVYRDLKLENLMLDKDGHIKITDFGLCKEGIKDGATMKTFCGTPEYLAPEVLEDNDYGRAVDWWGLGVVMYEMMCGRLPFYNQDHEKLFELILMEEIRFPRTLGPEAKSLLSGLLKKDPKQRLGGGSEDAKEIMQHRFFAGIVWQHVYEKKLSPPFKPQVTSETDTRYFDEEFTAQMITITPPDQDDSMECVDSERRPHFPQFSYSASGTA
UniProt Q9BV57: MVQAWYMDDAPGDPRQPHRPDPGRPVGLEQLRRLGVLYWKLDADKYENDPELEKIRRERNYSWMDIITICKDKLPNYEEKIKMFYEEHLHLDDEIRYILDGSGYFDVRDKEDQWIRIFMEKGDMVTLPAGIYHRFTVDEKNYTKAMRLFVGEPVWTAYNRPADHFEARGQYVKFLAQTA
UniProt P52895: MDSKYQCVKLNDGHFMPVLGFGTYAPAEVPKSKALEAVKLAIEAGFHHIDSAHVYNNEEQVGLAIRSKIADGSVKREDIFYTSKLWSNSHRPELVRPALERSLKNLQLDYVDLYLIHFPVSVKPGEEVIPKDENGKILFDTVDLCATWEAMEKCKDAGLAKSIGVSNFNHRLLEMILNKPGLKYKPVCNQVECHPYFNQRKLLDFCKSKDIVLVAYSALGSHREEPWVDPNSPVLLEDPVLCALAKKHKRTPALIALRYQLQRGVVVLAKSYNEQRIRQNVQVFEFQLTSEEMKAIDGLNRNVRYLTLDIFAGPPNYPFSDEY

[2] = compound: Cc1cccc(CC(=O)N2CCc3c2ccc(-c2cn(C)c4ncnc(N)c24)c3F)n1
How it was run: as §1

[3] = compound: Cc1cn(-c2cc(NC(=O)c3ccc(C)c(Nc4nccc(-c5cccnc5)n4)c3)cc(C(F)(F)F)c2)cn1 [nilotinib]
How it was run: as §1

[4] = compound: Cc1nc(Nc2n[nH]c3c2CN(C(=O)N[C@H](CN(C)C)c2ccccc2)C3(C)C)c2sccc2n1
How it was run: as §1

[5] = compound: Cc1nc(Nc2ncc(C(=O)Nc3c(C)cccc3Cl)s2)cc(N2CCN(CCO)CC2)n1 [dasatinib]
How it was run: as §1

[6] = compound: Cc1ncc(-c2ccnc(Nc3ccc(S(C)(=O)=O)cc3)n2)n1C(C)C
How it was run: as §1

[7] = compound: Cn1cc(-c2ccc3c(c2)CCN3C(=O)Cc2cccc(C(F)(F)F)c2)c2c(N)ncnc21
How it was run: as §1

[8] = compound: Cn1cc(-c2ccc3nnc(C(F)(F)c4ccc5ncccc5c4)n3n2)cn1
How it was run: as §1

[9] = compound: Cn1cncc1[C@@](N)(c1ccc(Cl)cc1)c1ccc2c(c1)c(-c1cccc(Cl)c1)cc(=O)n2C [tipifarnib]
How it was run: as §1

[10] = compound: FC(F)(F)c1ccc(/C=C/c2nc(COc3ccc(CCCCn4ccnn4)cc3)co2)cc1 [mubritinib]
How it was run: as §1

Target	log2 fold change [1]	log2 fold change [2]	log2 fold change [3]	log2 fold change [4]	log2 fold change [5]	log2 fold change [6]	log2 fold change [7]	log2 fold change [8]	log2 fold change [9]	log2 fold change [10]
AK2 isoform 2 (UniProt P54819)	inactive: -0.041	inactive: -0.013	inactive: 0.029	inactive: -0.01	inactive: 0.063	inactive: -0.016	inactive: 0.012	inactive: 0.021	inactive: 0.028	inactive: 0.024
ALYREF (UniProt Q86V81)	inactive: 0.246	inactive: -0.037	inactive: 0.012	inactive: 0.211	inactive: 0.259	inactive: 0.053	inactive: -0.236	inactive: -0.086	inactive: 0.103	inactive: -0.078
AK1 (UniProt P00568)	inactive: 0.01	inactive: -0.007	inactive: 0.02	inactive: -0.003	inactive: -0.12	inactive: 0.01	inactive: 0.048	inactive: 0.013	inactive: -0.074	inactive: 0.059
AKT2 (UniProt P31751)	inactive: 0.021	inactive: 0.049	inactive: -0.037	inactive: -0.144	inactive: -0.145	inactive: -0.108	inactive: 0.019	inactive: -0.034	inactive: -0.185	inactive: 0.037
AIP (UniProt O00170)	inactive: 0.017	inactive: 0.02	inactive: -0.062	inactive: -0.009	inactive: -0.144	inactive: 0.056	inactive: 0.031	inactive: 0.012	inactive: -0.058	inactive: 0.015
ALKBH3 (UniProt Q96Q83)	inactive: -0.041	inactive: -0.011	inactive: 0.017	inactive: 0.037	inactive: -0.036	inactive: -0.088	inactive: 0.019	inactive: 0.055	inactive: -0.035	inactive: 0
AGO1 (UniProt Q9UL18)	inactive: -0.036	inactive: -0.085	inactive: 0.185	inactive: 0.34	inactive: -0.019	inactive: -0.164	inactive: -0.073	inactive: -0.133	inactive: 0.057	inactive: -0.066
AK4 (UniProt P27144)	inactive: -0.05	inactive: 0.021	inactive: -0.008	inactive: 0.018	inactive: -0.016	inactive: -0.004	inactive: 0.077	inactive: 0.069	inactive: 0.003	inactive: -0.005
ALKBH2 (UniProt Q6NS38)	inactive: 0.122	inactive: -0.005	inactive: 0.034	inactive: 0.059	inactive: 0.04	inactive: -0.142	inactive: -0.201	inactive: -0.028	inactive: 0.177	inactive: -0.027
AMPD3 isoform 4 (UniProt Q01432)	inactive: -0.003	inactive: -0.022	inactive: 0.036	inactive: -0.005	inactive: -0.088	inactive: -0.067	inactive: 0.065	inactive: 0.04	inactive: -0.017	inactive: -0.02
ALDH4A1 (UniProt P30038)	inactive: -0.055	inactive: -0.061	inactive: 0.034	inactive: -0.023	inactive: 0	inactive: -0.024	inactive: 0.073	inactive: 0.038	inactive: 0.029	inactive: -0.164
AGPAT2 (UniProt O15120)	inactive: 0.053	inactive: 0.212	inactive: 0.022	inactive: -0.017	inactive: 0.03	inactive: -0.04	inactive: 0.089	inactive: -0.042	inactive: 0.155	inactive: -0.07
AMDHD2 isoform 3 (UniProt Q9Y303)	inactive: -0.007	inactive: -0.008	inactive: -0.053	inactive: -0.011	inactive: -0.038	inactive: 0.041	inactive: 0.05	inactive: 0.053	inactive: -0.123	inactive: 0.023
ALKBH5 (UniProt Q6P6C2)	inactive: 0.038	inactive: -0.15	inactive: 0.018	inactive: -0.025	inactive: 0.014	inactive: 0.011	inactive: -0.042	inactive: 0.011	inactive: 0.077	inactive: -0.019
AGPS (UniProt O00116)	inactive: -0.068	inactive: 0.025	inactive: 0.039	inactive: -0.012	inactive: -0.023	inactive: 0.006	inactive: 0.09	inactive: 0.01	inactive: 0.032	inactive: 0.112
AFTPH isoform 9 (UniProt Q6ULP2)	inactive: -0.064	inactive: -0.012	inactive: -0.081	inactive: 0.015	inactive: -0.005	inactive: -0.049	inactive: 0.031	inactive: 0.084	inactive: -0.079	inactive: 0.102
AHNAK (UniProt Q09666)	inactive: 0.004	inactive: -0.052	inactive: 0.034	inactive: -0.007	inactive: 0.02	inactive: 0.021	inactive: -0.044	inactive: -0.01	inactive: 0.03	inactive: 0.003
AKR1C3 (UniProt P42330)	inactive: 0.018	inactive: -0.03	inactive: 0.025	inactive: 0.004	inactive: -0.038	inactive: 0.078	inactive: 0.068	active: 0.557	active: 0.862	inactive: -0.147
AKT1S1 isoform 3 (UniProt Q96B36)	inactive: -0.05	inactive: -0.037	inactive: 0.047	inactive: 0.052	inactive: 0.037	inactive: -0.019	inactive: 0.012	inactive: -0.01	inactive: 0.066	inactive: 0.024
AKR1A1 (UniProt P14550)	inactive: 0.001	inactive: -0.001	inactive: 0.005	inactive: -0.006	inactive: -0.054	inactive: -0.016	inactive: 0.03	inactive: -0.007	inactive: -0.048	inactive: -0.028
ALDH9A1 (UniProt P49189)	inactive: 0.023	inactive: 0.071	inactive: -0.08	inactive: -0.046	inactive: -0.105	inactive: 0.019	inactive: 0.047	inactive: 0.044	inactive: 0.099	inactive: -0.015
ALG1 (UniProt Q9BT22)	inactive: 0.016	inactive: 0.02	inactive: 0.065	inactive: 0.074	inactive: -0.059	inactive: 0.012	inactive: -0.017	inactive: -0.002	inactive: -0.049	inactive: 0.09
AKT1 (UniProt P31749)	inactive: 0.041	inactive: 0.004	inactive: 0.033	inactive: -0.275	inactive: -0.416	inactive: -0.158	inactive: 0.048	inactive: 0	inactive: -0.136	inactive: 0.033
ADSS1 (UniProt Q8N142)	inactive: 0	inactive: -0.042	inactive: 0.125	inactive: -0.043	inactive: 0.026	inactive: -0.015	inactive: 0.04	inactive: -0.047	inactive: -0.066	inactive: 0.155
ADI1 (UniProt Q9BV57)	inactive: -0.035	inactive: -0.03	inactive: -0.017	inactive: -0.029	inactive: -0.031	inactive: -0.006	inactive: 0.055	inactive: 0.052	inactive: 0.005	inactive: 0.068
ALDH6A1 (UniProt Q02252)	inactive: -0.045	inactive: -0.103	inactive: -0.003	inactive: 0.018	inactive: -0.204	inactive: -0.015	inactive: -0.019	inactive: -0.019	inactive: 0.01	active: -0.528
ALG11 (UniProt Q2TAA5)	inactive: -0.078	inactive: 0.086	inactive: 0.001	inactive: -0.037	inactive: 0.005	inactive: 0.129	inactive: -0.072	inactive: 0.028	inactive: -0.016	inactive: 0.066
ALDH5A1 isoform 2 (UniProt P51649)	inactive: -0.067	inactive: -0.058	inactive: 0.006	inactive: 0.012	inactive: 0.018	inactive: -0.027	inactive: 0.015	inactive: -0.001	inactive: -0.011	inactive: 0.004
AKR1C2 (UniProt P52895)	inactive: 0.103	inactive: -0.111	inactive: 0.029	inactive: -0.057	inactive: -0.012	inactive: 0.028	inactive: -0.07	inactive: 0.223	inactive: 0.271	inactive: -0.06
AHCYL2 (UniProt Q96HN2)	inactive: -0.017	inactive: -0.025	inactive: 0.085	inactive: -0.052	inactive: 0.062	inactive: 0.056	inactive: 0.034	inactive: 0.009	inactive: -0.019	inactive: 0.013

Part of the list above, in markdown.

| Target | log2 fold change [1] | log2 fold change [2] | log2 fold change [3] | log2 fold change [4] | log2 fold change [5] | log2 fold change [6] | log2 fold change [7] | log2 fold change [8] | log2 fold change [9] | log2 fold change [10] |
| --- | --- | --- | --- | --- | --- | --- | --- | --- | --- | --- |
| AKT1S1 isoform 3 (UniProt Q96B36) | inactive: -0.05 | inactive: -0.037 | inactive: 0.047 | inactive: 0.052 | inactive: 0.037 | inactive: -0.019 | inactive: 0.012 | inactive: -0.01 | inactive: 0.066 | inactive: 0.024 |
| AKR1A1 (UniProt P14550) | inactive: 0.001 | inactive: -0.001 | inactive: 0.005 | inactive: -0.006 | inactive: -0.054 | inactive: -0.016 | inactive: 0.03 | inactive: -0.007 | inactive: -0.048 | inactive: -0.028 |

From the supplement of paper PMC10849652
